In publication PMC10883971:
The exact form of at least one protein or probe is not confirmed. At least one result comes from cells or an extract, where the contact may be indirect.

What was measured:
[1] = system: TEAD (TEAD1-4, paralog not resolved) + YAP + beta-catenin; experiment: EMSA supershift; details: anti-beta-catenin reduces band, anti-YAP plus anti-beta-catenin displaces band, no ternary binding after siTEAD; 10 mM HEPES pH 8, 50 mM NaCl, 0.1 mM EDTA, 5 mM MgCl2, 2 mM DTT, 5% glycerol, 2 ug poly dG:dC, 4 ug BSA, 5 ug nuclear extract in 20 ul, room temperature; 4.8% gel in TBE; protein in an extract; label: 32P (gamma-32P-ATP)
[2] = system: TEAD (TEAD1-4, paralog not resolved) + YAP; experiment: EMSA supershift; details: siYAP reduces band, anti-YAP supershift; 10 mM HEPES pH 8, 50 mM NaCl, 0.1 mM EDTA, 5 mM MgCl2, 2 mM DTT, 5% glycerol, 2 ug poly dG:dC, 4 ug BSA, 5 ug nuclear extract in 20 ul, room temperature; 4.8% gel in TBE; protein in an extract; label: 32P (gamma-32P-ATP)

TTCGATACACTTGTGGAATGTGTTTGATTTGTTAGCCCCG (double strand) [hMCAT 1xGT (TEAD consensus)]
binding result [1]: binds | binding result [2]: binds
